No constants are given. Whether binding was seen depends on the method and setting. In cells and extracts the contact can be indirect. Some results given as binding are weak or reduced against the parent protein; the word gives no strength.
Target: IQ motif-containing GTPase activating protein 1 (IQGAP1) (mouse (endogenous in primary murine Sertoli cells)) (UniProt Q9JKF1)
Experiment: co-IP; Protein G magnetic beads with anti-IQGAP1 or anti-PAFAH1B1 antibody; protein extracts of murine Sertoli cells added overnight at 4 °C; washed with 1x PBST; immunoblot; also in cells treated with Pafah1b1 siRNA or miR-181c/d mimics (complex reduced)

The chains behind the UniProt entries cited, without tags or fusion partners.
UniProt Q9JKF1: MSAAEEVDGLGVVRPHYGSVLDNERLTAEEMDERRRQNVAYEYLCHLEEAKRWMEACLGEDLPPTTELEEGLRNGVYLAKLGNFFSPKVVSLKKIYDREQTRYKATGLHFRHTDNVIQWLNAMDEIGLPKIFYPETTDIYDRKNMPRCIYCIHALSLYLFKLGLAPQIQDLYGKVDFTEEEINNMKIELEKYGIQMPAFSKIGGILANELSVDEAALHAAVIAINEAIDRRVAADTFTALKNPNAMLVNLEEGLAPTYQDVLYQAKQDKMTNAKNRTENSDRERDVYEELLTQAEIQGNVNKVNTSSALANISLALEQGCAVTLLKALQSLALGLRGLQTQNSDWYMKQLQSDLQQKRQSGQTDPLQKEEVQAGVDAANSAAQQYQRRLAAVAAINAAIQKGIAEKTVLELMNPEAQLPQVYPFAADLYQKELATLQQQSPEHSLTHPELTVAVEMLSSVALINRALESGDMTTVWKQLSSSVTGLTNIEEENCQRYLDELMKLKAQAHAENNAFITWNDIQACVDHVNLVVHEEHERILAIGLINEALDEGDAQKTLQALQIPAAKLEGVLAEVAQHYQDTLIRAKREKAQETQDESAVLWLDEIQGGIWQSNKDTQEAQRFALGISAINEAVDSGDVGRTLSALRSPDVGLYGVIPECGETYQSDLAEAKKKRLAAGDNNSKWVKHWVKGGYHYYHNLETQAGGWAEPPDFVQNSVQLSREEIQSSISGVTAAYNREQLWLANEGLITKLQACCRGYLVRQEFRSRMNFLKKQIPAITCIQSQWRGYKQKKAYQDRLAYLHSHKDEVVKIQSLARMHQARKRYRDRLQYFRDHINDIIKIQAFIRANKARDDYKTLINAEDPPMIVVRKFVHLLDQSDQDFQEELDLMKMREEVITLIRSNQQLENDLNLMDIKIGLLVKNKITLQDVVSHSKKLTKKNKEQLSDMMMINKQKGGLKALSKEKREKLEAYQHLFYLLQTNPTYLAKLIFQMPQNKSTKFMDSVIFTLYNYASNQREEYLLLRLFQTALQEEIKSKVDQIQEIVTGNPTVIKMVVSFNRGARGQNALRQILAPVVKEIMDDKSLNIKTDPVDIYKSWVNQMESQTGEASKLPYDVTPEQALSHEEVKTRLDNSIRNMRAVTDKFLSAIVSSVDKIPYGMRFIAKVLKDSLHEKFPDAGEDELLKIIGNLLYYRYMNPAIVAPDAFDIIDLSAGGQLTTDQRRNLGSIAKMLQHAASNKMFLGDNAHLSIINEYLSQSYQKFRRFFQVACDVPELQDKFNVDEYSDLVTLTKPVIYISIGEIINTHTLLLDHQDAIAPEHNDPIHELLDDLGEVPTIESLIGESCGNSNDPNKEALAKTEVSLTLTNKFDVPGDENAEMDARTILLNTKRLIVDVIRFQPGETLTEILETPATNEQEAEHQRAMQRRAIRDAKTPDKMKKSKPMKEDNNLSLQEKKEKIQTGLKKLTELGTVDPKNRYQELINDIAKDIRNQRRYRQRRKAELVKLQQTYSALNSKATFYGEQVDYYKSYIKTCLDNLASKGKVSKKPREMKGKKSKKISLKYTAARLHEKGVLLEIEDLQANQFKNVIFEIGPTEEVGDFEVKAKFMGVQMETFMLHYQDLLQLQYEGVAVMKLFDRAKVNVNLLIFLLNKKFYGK

binding: binds
B1: Platelet-activating factor acetylhydrolase 1b regulatory subunit 1 (PAFAH1B1) (protein, UniProt P63005-1 1-410)
chain: MVLSQRQRDELNRAIADYLRSNGYEEAYSVFKKEAELDMNEELDKKYAGLLEKKWTSVIRLQKKVMELESKLNEAKEEFTSGGPLGQKRDPKEWIPRPPEKYALSGHRSPVTRVIFHPVFSVMVSASEDATIKVWDYETGDFERTLKGHTDSVQDISFDHSGKLLASCSADMTIKLWDFQGFECIRTMHGHDHNVSSVAIMPNGDHIVSASRDKTIKMWEVQTGYCVKTFTGHREWVRMVRPNQDGTLIASCSNDQTVRVWVVATKECKAELREHEHVVECISWAPESSYSSISEATGSETKKSGKPGPFLLSGSRDKTIKMWDVSTGMCLMTLVGHDNWVRGVLFHSGGKFILSCADDKTLRVWDYKNKRCMKTLNAHEHFVTSLDFHKTAPYVVTGSVDQTVKVWECR

Source: article PMC9411099
